Laboratory results: paper PMC1796622
These are yes or no findings as the source states them, for the method shown.

Biological target: HA-tagged APOBEC3G (UniProt Q9HC16)
Assay: SEC; lysates of purified HIV-1ΔVif virions with or without HA-A3G on Superose 6 HR 10/30 (FPLC); 50 mM HEPES pH 7.4, 125 mM NaCl, 0.1% NP-40, 1 mM dithiothreitol, 10% glycerol; 1-ml fractions immunoblotted

HIV-1 gp41 (from UniProt P03377 517-861)
binding: no binding
